Values of other authors, collected in US20190115105A1, “TANDEM DUPLICATOR PHENOTYPE (TDP) AS A DISTINCT GENOMIC CONFIGURATION IN CANCER AND USE THEREOF” (The Jackson Laboratory, priority 2016, published 2019).

Tested on: MCF-7
Conditions: MCF-7, ER/PR+, TDP, TDP Score 0.385; GDSC data base; cited from earlier work

SMILES: N.N.[Cl][Pt][Cl] [Cisplatin, cisplatin]
- IC50 Ln (μM): 2.72 Ln (μM)
